The test system of the series is esophageal cancer samples versus a panel of normal tissues. Briefly: Label-free relative LC-MS quantitation of HLA-presented peptides (presentation profile/score). Also noted: species or system human; key: very highly over-presented on tumors compared to a panel of normal tissues (+++); highly over-presented on tumors compared to a panel of normal tissues (++); over-presented on tumors compared to a panel of normal tissues (+). The note with it: tumors compared to a panel of normal tissues.
On to “14 (RLPNAGTQV; listed as Homo sapiens) [compound 14]”, for which the “Peptide Presentation” value is recorded as “+++”.

Regarding “61 (TQTTHELTI; listed as Homo sapiens) [compound 61]”, the “Peptide Presentation” value is on record as “+++”. Turning to “36 (FLLRFSQDNA; listed as Homo sapiens) [compound 36]”, the “Peptide Presentation” value is reported as “+++”.

As to “6 (LLSGDLIFL; listed as Homo sapiens) [compound 6]”, the “Peptide Presentation” value is reported as “+++”.

For “65 (YVVGGFLYQRL; listed as Homo sapiens) [compound 65]”, the “Peptide Presentation” value is “+++”. “22 (KLNDTYVNV; listed as Homo sapiens) [compound 22]”: the “Peptide Presentation” value is “+++”.

Regarding “5 (NLMASQPQL; listed as Homo sapiens) [compound 5]”, the “Peptide Presentation” value is “+++”. “4 (ALFGTILEL; listed as Homo sapiens) [compound 4]”: the “Peptide Presentation” value was “++”.

“10 (SLDENSDQQV; listed as Homo sapiens) [compound 10]”: the “Peptide Presentation” value is recorded as “+++”. Consider “19 (GLAPFLLNAV; listed as Homo sapiens) [compound 19]”, for which the “Peptide Presentation” value was “+++”. The entry for “40 (GLAFSLYQA; listed as Homo sapiens) [compound 40]” is “+++”; for “84 (SLAESLDQA; listed as Homo sapiens) [compound 84]” it is “+”. As to “21 (IVREFLTAL; listed as Homo sapiens) [compound 21]”, the “Peptide Presentation” value is listed as “+++”. For “81 (AVLPHVDQV; listed as Homo sapiens) [compound 81]”, the “Peptide Presentation” value was “+++”. For the substance “3 (TASAITPSV; listed as Homo sapiens) [compound 3]”, the “Peptide Presentation” value is listed as “+++”. Take “89 (SLADSLYNL; listed as Homo sapiens) [compound 89]”: the “Peptide Presentation” value is “+”. In the case of “59 (SLLDTLREV; listed as Homo sapiens) [compound 59]”, the “Peptide Presentation” value was “+++”. The entry for “13 (SLSPVILGV; listed as Homo sapiens) [compound 13]” is “+++”.

In the case of “8 (ALLDGGSEAYWRV; listed as Homo sapiens) [compound 8]”, the “Peptide Presentation” value was “+++”.

Regarding “35 (LLRFSQDNA; listed as Homo sapiens) [compound 35]”, the “Peptide Presentation” value was “+++”.

As to “41 (GLESEELEPEEL; listed as Homo sapiens) [compound 41]”, the “Peptide Presentation” value was “+”. For the substance “23 (KLSDSATYL; listed as Homo sapiens) [compound 23]”, the “Peptide Presentation” value was “+++”.

Consider “66 (LLDEKVQSV; listed as Homo sapiens) [compound 66]”, for which the “Peptide Presentation” value is given as “+”. For the substance “72 (FLPPAQVTV; listed as Homo sapiens) [compound 72]”, the “Peptide Presentation” value is “+”.

In the case of “71 (ASDPILYRPVAV; listed as Homo sapiens) [compound 71]”, the “Peptide Presentation” value was “+”. Take “39 (LVRDTQSGSL; listed as Homo sapiens) [compound 39]”: the “Peptide Presentation” value is recorded as “+++”. Consider “34 (SLVSEQLEPA; listed as Homo sapiens) [compound 34]”, for which the “Peptide Presentation” value was “+”. “91 (KLIDDVHRL; listed as Homo sapiens) [compound 91]”: the “Peptide Presentation” value was “+”. “52 (VAIGGVDGNVRL; listed as Homo sapiens) [compound 52]”: the “Peptide Presentation” value was “+++”.

For the substance “62 (ALYEYQPLQI; listed as Homo sapiens) [compound 62]”, the “Peptide Presentation” value is “+++”.

Consider “51 (KLFGHLTSA; listed as Homo sapiens) [compound 51]”, for which the “Peptide Presentation” value is on record as “+++”.

“92 (SILRHVAEV; listed as Homo sapiens) [compound 92]”: the “Peptide Presentation” value is given as “+”. The value for “55 (GAIDLLHNV; listed as Homo sapiens) [compound 55]” was “+++”. In the case of “73 (KITEAIQYV; listed as Homo sapiens) [compound 73]”, the “Peptide Presentation” value is “+”.

In the case of “38 (IAAIRGFLV; listed as Homo sapiens) [compound 38]”, the “Peptide Presentation” value is listed as “+++”.

On to “27 (NLREGDQLL; listed as Homo sapiens) [compound 27]”, for which the “Peptide Presentation” value was “+++”.

“28 (SLDGFTIQV; listed as Homo sapiens) [compound 28]”: the “Peptide Presentation” value is given as “+++”.

On to “70 (FVLDTSESV; listed as Homo sapiens) [compound 70]”, for which the “Peptide Presentation” value was “+”. With “64 (GLTDVIRDV; listed as Homo sapiens) [compound 64]”, the “Peptide Presentation” value is “++”. As to “88 (GLWEQENHL; listed as Homo sapiens) [compound 88]”, the “Peptide Presentation” value is given as “+”. The entry for “32 (YMLDIFHEV; listed as Homo sapiens) [compound 32]” is “+++”; for “20 (IIEVDPDTKEML; listed as Homo sapiens) [compound 20]” it is “+++”.

For the substance “33 (GLDVTSLRPFDL; listed as Homo sapiens) [compound 33]”, the “Peptide Presentation” value is reported as “+++”.

With “17 (MISRTPEV; listed as Homo sapiens) [compound 17]”, the “Peptide Presentation” value is listed as “+++”.

As to “9 (HLIAEIHTA; listed as Homo sapiens) [compound 9]”, the “Peptide Presentation” value was “+++”. As for “45 (MLTELEKAL; listed as Homo sapiens) [compound 45]”, the “Peptide Presentation” value is recorded as “+++”. Regarding “12 (GLASRILDA; listed as Homo sapiens) [compound 12]”, the “Peptide Presentation” value is “+++”. The entry for “11 (ALWLPTDSATV; listed as Homo sapiens) [compound 11]” is “+++”. Turning to “80 (ALQEALENA; listed as Homo sapiens) [compound 80]”, the “Peptide Presentation” value was “++”. For the substance “47 (VLASGFLTV; listed as Homo sapiens) [compound 47]”, the “Peptide Presentation” value is on record as “+++”. The entry for “2 (SLYNLGGSKRISI; listed as Homo sapiens) [compound 2]” is “+++”; for “57 (GLAPNTPGKA; listed as Homo sapiens) [compound 57]” it is “+++”; for “7 (SIFEGLLSGV; listed as Homo sapiens) [compound 7]” it is “+++”. As for “44 (ATGNDRKEAAENSL; listed as Homo sapiens) [compound 44]”, the “Peptide Presentation” value is listed as “+++”. Consider “1 (STYGGGLSV; listed as Homo sapiens) [compound 1]”, for which the “Peptide Presentation” value is listed as “+++”. For “29 (SLDGTELQL; listed as Homo sapiens) [compound 29]”, the “Peptide Presentation” value is given as “+++”. The value for “86 (GLLTEIRAV; listed as Homo sapiens) [compound 86]” was “+”; that for “50 (GMNPHQTPAQL; listed as Homo sapiens) [compound 50]” was “+++”; that for “15 (LLANGVYAA; listed as Homo sapiens) [compound 15]” was “+++”.

These data come from US12351616B2, “Peptides and combination of peptides for use in immunotherapy against esophageal cancer and other cancers” (Immatics Biotechnologies GmbH, priority 2015, dated 2025).
